Among all 330,000 compounds or so, about 7,700 (2.3%) were called active. Inconclusive results, whose numbers are uncertain, are shown with a selection of clear calls. Calls come from the whole dose curve; as a rule, active = well fitted inhibition curve with a large enough effect; inconclusive = small, poorly fitted or top-dose-only effect, or effect the other way; inactive = flat fitted curve, though single readings scatter. Potencies of inconclusive entries are doubtful fits and often do not repeat.
Experiment: qHTS screen for small molecules that inhibit ELG1-dependent DNA repair in human embryonic kidney (HEK293T) cells expressing luciferase-tagged ELG1; note: nearly all actives have a fitted effect of over 55% in size
Settings: HEK293T ELG1-luciferase reporter, luminescence, 16 h, DNA damage induced by 5-fluorouridine; activity change, negative = inhibition: at 46.1 µM (top of the series)
Summary of the method: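 HEK293T cells expressing luciferase-tagged ELG1 (2,000/well) received 5-Fluorouridine plus compound or DMSO for 16 hr at 37 °C. Luciferase was read by ONE-Glo luminescence after 30 min at room temperature.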
% is set by controls: 0 for no effect and ±100 for the full control effect; potency is the fitted concentration of half-maximal effect.

Row | SMILES | Potency | activity change, negative = inhibition
1 | O=C(CSc1nnc(-c2ccncc2)o1)NCc1ccccc1 | inconclusive: 16.4 µM [inhibitor, partial curve] | –
2 | Cc1ccc(NC2CCCN(C(=O)c3cccs3)C2)cc1C (centres undefined) | – | inactive: 15.2%
3 | O=C(/C=C/c1cc([N+](=O)[O-])ccc1OC(F)F)Nc1cccc2ccccc12 | inconclusive: 18.4 µM [inhibitor, single point] | –
4 | O=S(=O)(c1cccc2nsnc12)N1CCc2ccccc21 | inconclusive: 20.6 µM [activator, single point] | –
5 | Cn1c(SCC(=O)N/N=C/c2ccccn2)nnc1-c1ccccc1 | – | inactive: 1.45%
6 | O=C(Nc1nc(-c2ccccn2)cs1)c1ccco1 | inconclusive: 29.1 µM [activator, single point] | –
7 | COc1ccc(CS(=O)/C(Cl)=C(/Cl)C(=O)Nc2ccc(OC)nc2)cc1 (centres undefined) | inconclusive: 29.1 µM [inhibitor, single point] | –
8 | Nc1cc(Cl)ccc1C(=O)OCC(=O)N1CCCCCC1 | – | inactive: 0%
9 | COc1ccc(-c2nc3ccccn3c2NCc2ccc3c(c2)OCO3)cc1 | inconclusive: 2.91 µM [activator, partial curve] | –
10 | O=C(/C=C/Nc1cccc(C(F)(F)F)c1)c1ccc(Oc2ncccn2)cc1 | – | inactive: 23.1%
11 | COC(=O)c1cnn(-c2nc(OC)cc(OC)n2)c1C | – | inactive: -5.87%
12 | CCOc1ccc(C(=O)C2CCN(CC(=O)Nc3ccccc3N3CCOCC3)CC2)cc1 | active: 20.6 µM | –
13 | O=C(NCCCn1ccnc1)c1cc(S(=O)(=O)N2CCOCC2)ccc1F | – | inconclusive: 48.1% [activator]
14 | Cc1nc2ccccc2n1CCOc1ccc(F)cc1 | – | inactive: -11.2%
15 | CCCn1c2ccc(F)cc2c2nnc(SCCN3CCCCC3)nc21 | inconclusive: 23.1 µM [activator, single point] | –
16 | Cc1cc(NC(=O)CSc2nnc3c4c(C)c(C)sc4ncn23)no1 | – | inactive: -1.25%
17 | COc1ccc(-c2cc(C(=O)Nc3cc(C)on3)c3ccccc3n2)c(OC)c1 | active: 18.3 µM | –
18 | CCNc1nc(NCC)n2c(SCc3nc4ccccc4c(=O)[nH]3)nnc2n1 | inconclusive: 14.6 µM [inhibitor, partial curve, poor fit] | –
19 | Cc1ccc(-c2nn(-c3ccc(F)cc3)cc2C(=O)N2CCN(C3CCS(=O)(=O)C3)CC2)cc1 (centres undefined) | – | inactive: 18.4%
20 | COC(=O)c1sccc1-n1cc(C#N)c(=O)n(C)c1=O | inconclusive: 23.1 µM [activator, partial curve, poor fit] | –
21 | O=C(NC(CSCc1ccccc1)C(=O)N/N=C/c1ccc(O)cc1O)c1ccc([N+](=O)[O-])cc1 (centres undefined) | inconclusive: 13 µM [inhibitor, partial curve] | –
22 | Cc1cc(CN2CCCC(C(=O)Nc3ccc(-c4nc5ccccc5[nH]4)cc3)C2)n[nH]1 (centres undefined) | inconclusive: 14.6 µM [activator, partial curve] | –
23 | CC(=O)c1c(C)[nH]c(C(=O)OCc2ccccc2)c1C | inconclusive: 16.4 µM [activator, partial curve] | –
24 | CCOC(=O)C(C(=O)N(C)Cc1ccccc1)C1CCCCC1 (centres undefined) | – | inactive: -4.08%
25 | CC(C)c1ccccc1OCC(=O)Nc1cc(S(=O)(=O)N2CCOCC2)ccc1N1CCCC1 | inconclusive: 35.5 µM [inhibitor, single point] | –

Row | SMILES | Potency | activity change, negative = inhibition
26 | Cc1cc(C(=O)NCC(=O)Nc2c(C)cccc2C)c2ccccc2n1 | inconclusive: 0.259 µM [activator, partial curve] | –
27 | O=C(CC12CCC(CC1)C2)NCc1ccc2c(c1)OCO2 | inconclusive: 25.9 µM [activator, single point] | –
28 | COC(=O)c1cn[nH]c1NC(=S)Nc1ccc(Cl)c(Cl)c1 | inconclusive: 0.58 µM [activator, full curve] | –
29 | Cc1c(O)ccc(C(=O)CN2CCN(c3ccccc3F)CC2)c1O | – | inactive: 3.55%
30 | CSc1nc2ccc(NC(=O)NC(=O)c3c(F)cccc3F)cc2s1 | – | inactive: 14.4%
31 | Cc1ccccc1C1c2[nH]c3ccccc3c2C[C@H]2C(=O)N(c3ccccc3C(=O)NCCCN3CCOCC3)C(=O)N12 (some centres undefined) | inconclusive: 25.9 µM [inhibitor, single point] | –
32 | CCN(CC(=O)Nc1ccc(NC(C)=O)cc1)C(=O)C1(c2ccccc2)CC1 | – | inactive: -10.5%
33 | COC(=O)c1ccc(OC(=O)c2ccccc2F)cc1 | inconclusive: 20.6 µM [activator, partial curve, poor fit] | –
34 | Cc1cc(CNC(=O)COc2ccc(F)cc2Cl)cc(C)c1O | inconclusive: 29.1 µM [inhibitor, single point] | –
35 | CN(C)c1ccc(Nc2ncnc3ccc(Br)cc23)cc1 | active: 8.2 µM | –
36 | Cc1cc(C)cc(NC(=O)CN2CCN(c3ccccc3)CC2)c1 | – | inactive: 0.122%
37 | COc1ccc(NC(=O)CCc2nc(-c3ccc(C)cc3)no2)cc1Cl | inconclusive: 0.651 µM [inhibitor, single point] | –
38 | CCOC(=O)c1[nH]c2ccc(OC)cc2c1NC(=O)CN1CCN(c2ccccn2)CC1 | inconclusive: 3.26 µM [inhibitor, full curve] | –
39 | Cc1occc1C(=O)NCc1cccc(CNC(=O)c2ccoc2C)c1 | inconclusive: 29.1 µM [inhibitor, single point] | –
40 | Cc1nc2cc(Nc3nnc(-c4ccccc4)c4ccccc34)ccc2n1C | inconclusive: 9.2 µM [activator, partial curve] | –
41 | O=C(NCCCO)c1ccc(CSc2nc3ccccc3[nH]2)cc1 | – | inactive: 4.81%
42 | c1cc(-c2noc(CCC3CCCC3)n2)ccn1 | inconclusive: 18.4 µM [activator, single point] | –
43 | Cc1csc2ncc(C(=O)NCCc3ccccc3)c(=O)n12 | inconclusive: 23.1 µM [activator, partial curve] | –
44 | CCc1ccc(NC(=O)C2CCN(S(=O)(=O)c3ccc4c(c3)NC(=O)CO4)CC2)cc1 | inconclusive: 20.6 µM [inhibitor, single point] | –
45 | Cc1ccc(C2c3[nH]c4ccccc4c3C[C@H]3C(=O)N(c4ccccc4C(=O)NCCN4CCOCC4)C(=O)N23)cc1 (some centres undefined) | inconclusive: 20.6 µM [inhibitor, single point] | –
46 | Cc1ccc(S(=O)(=O)NCC(=O)OCc2nnc(-c3ccccc3)o2)cc1 | – | inactive: 2.75%
47 | COc1cc(/C=N/NC(=O)c2cccnc2)ccc1OS(=O)(=O)c1ccc(C)cc1 | inconclusive: 29.1 µM [inhibitor, single point] | –
48 | CCCn1c(SCC(=O)Nc2cc(S(=O)(=O)N3CCCCC3)ccc2C)n[nH]c1=O | – | inactive: -17%
49 | c1csc(-c2csc(-c3cccs3)n2)c1 | inconclusive: 3.26 µM [activator, single point] | –
50 | O=C(N/C(=C/c1ccccc1Cl)C(=O)N1CCOCC1)c1ccccc1 | – | inactive: 5.59%

Row | SMILES | Potency | activity change, negative = inhibition
51 | CC(C)COc1cccc(C(=O)Nc2ccc(S(=O)(=O)N3CCOCC3)cc2)c1 | – | inactive: -24.9%
52 | O=C(C[C@@H]1C/C=C\C[C@H](Cc2ccc(F)cc2)C(=O)OCCNC1=O)NCCO | – | inactive: 11.1%
53 | COc1ccc(-n2c(C)c([N+](=O)[O-])c3ccc(O)c(CN4CCCCC4)c32)cc1 | active: 10.3 µM | –
54 | COc1cccc(OC)c1C(=O)Nc1sc2c(c1C(N)=O)CCN(Cc1ccccc1)C2 | – | inactive: -14%
55 | CCOc1ccc(NC(=O)Cn2nnc(-c3ccccc3NC(=O)C3CC3)n2)cc1 | inconclusive: 6.51 µM [inhibitor, full curve] | –
56 | C=CCOC(=O)C1C(=O)CC(C)(O)C(C(=O)OCC=C)C1c1ccc(N(C)C)cc1 (centres undefined) | – | inactive: -5.16%
57 | Cc1cc(C(=O)CSc2nc3ccccc3o2)c(C)n1C1CC1 | inconclusive: 2.91 µM [activator, full curve] | –
58 | Cn1c(N)c(C(=O)c2ccc(F)cc2F)c(=O)n(C)c1=O | inconclusive: 23.1 µM [activator, single point] | –
59 | Brc1ccc(CNc2nc3ccccc3n2CCN2CCCCC2)cc1 | – | inactive: -3.4%
60 | COc1ccc(NC(=O)CCCCCN2C(=O)[C@@H]3Cc4ccccc4CN3C2=O)cc1Cl | inconclusive: 32.6 µM [inhibitor, single point] | –
61 | O=C(CCCOc1ccccc1)NCc1ccco1 | inconclusive: 3.66 µM [inhibitor, single point] | –
62 | O=C(Sc1cccc2cccnc12)c1ccccc1Br | inconclusive: 29.1 µM [inhibitor, single point] | –
63 | O=C(Nc1ccc2c(c1)OCCO2)c1ccc(Cl)cc1 | inconclusive: 2.31 µM [activator, full curve] | –
64 | Cc1cc(NS(=O)(=O)c2ccc(NC(=O)c3ccc(Cl)cc3[N+](=O)[O-])cc2)no1 | – | inactive: -3.12%
65 | O=C(O)c1ccc(CSc2nc3ccccc3c(=O)n2-c2ccccc2)cc1 | – | inactive: 3.11%
66 | Cn1c2ccccc2c2cc(/C=N/NC(=O)c3ccc(O)cc3O)ccc21 | inconclusive: 29.1 µM [inhibitor, single point] | –
67 | CCN(CC(=O)NCc1cccs1)C(=O)c1ccc(OC)c(OC)c1 | inconclusive: 3.26 µM [activator, single point] | –
68 | CCCNC(=O)COc1coc(CN2CCN(c3ccccc3F)CC2)cc1=O | – | inactive: -2.23%
69 | O=C(NC1CCSc2ccccc21)c1ccc(C(F)(F)F)cc1 (centres undefined) | – | inactive: -3.74%
70 | O=C(O)c1ccccc1C(=O)NCc1ccc2c(c1)OCO2 | – | inactive: 24.2%
71 | COc1ccc(Sc2nc(-c3ccccn3)ncc2OC)cc1 | active: 14.6 µM | –
72 | O=C(OCC#CCSc1nnc(-c2cccc3ccccc23)o1)c1cnc[nH]1 | – | inactive: -20.3%
73 | COC(=O)[C@H](Cc1ccc(O)cc1)NC(=O)Cn1cnc(C(=O)Nc2ccc(C)c(C)c2)n1 | inconclusive: 18.3 µM [activator, single point] | –
74 | O=C(CSc1nnc(-c2ccco2)o1)N1c2ccccc2CCc2ccccc21 | active: 11.6 µM | –

Single values from the entries so far.
`C=CCOC(=O)C1C(=O)CC(C)(O)C(C(=O)OCC=C)C1c1ccc(N(C)C)cc1` (centres undefined) – activity change, negative = inhibition: inactive: -5.16%
`O=C(Nc1ccc2c(c1)OCCO2)c1ccc(Cl)cc1` – Potency: inconclusive: 2.31 µM [activator, full curve]
`O=C(Sc1cccc2cccnc12)c1ccccc1Br` – Potency: inconclusive: 29.1 µM [inhibitor, single point]
